doi:10.1101/291294
These are yes or no findings as the source states them, for the method shown. In cells and extracts the contact can be indirect. Tags and fused reporters may be left off the sequences shown.

Chains of the proteins cited; added tags and fusions are not shown.
UniProt P98170: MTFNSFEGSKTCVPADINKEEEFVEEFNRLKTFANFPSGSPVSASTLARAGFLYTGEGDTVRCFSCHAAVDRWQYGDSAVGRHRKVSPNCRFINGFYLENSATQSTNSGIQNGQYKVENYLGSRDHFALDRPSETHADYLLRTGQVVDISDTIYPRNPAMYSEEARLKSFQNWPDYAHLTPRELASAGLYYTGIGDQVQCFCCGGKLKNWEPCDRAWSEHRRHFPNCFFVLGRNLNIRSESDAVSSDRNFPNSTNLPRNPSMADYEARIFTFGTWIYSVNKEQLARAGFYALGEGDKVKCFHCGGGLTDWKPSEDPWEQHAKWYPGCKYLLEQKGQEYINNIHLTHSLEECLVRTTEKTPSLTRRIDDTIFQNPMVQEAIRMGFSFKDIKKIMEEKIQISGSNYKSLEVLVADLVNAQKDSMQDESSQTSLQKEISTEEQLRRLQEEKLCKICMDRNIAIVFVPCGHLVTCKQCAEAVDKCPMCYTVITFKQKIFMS

Molecular target: GST-tagged human XIAP (human) (UniProt P98170)
Assay: pull-down

B1: GFP-fusion of VPS16 (protein, UniProt Q9H269 1-839)
chain: MDCYTANWNPLGDSAFYRKYELYSMDWDLKEELRDCLVAAAPYGGPIALLRNPWRKEKAASVRPVLDIYSASGMPLASLLWKSGPVVSLGWSAEEELLCVQEDGAVLVYGLHGDFRRHFSMGNEVLQNRVLDARIFHTEFGSGVAILTGAHRFTLSANVGDLKLRRMPEVPGLQSAPSCWTVLCQDRVAHILLAVGPDLYLLDHAACSAVTPPGLAPGVSSFLQMAVSFTYRHLALFTDTGYIWMGTASLKEKLCEFNCNIRAPPKQMVWCSRPRSKERAVVVAWERRLMVVGDAPESIQFVLDEDSYLVPELDGVRIFSRSTHEFLHEVPAASEEIFKIASMAPGALLLEAQKEYEKESQKADEYLREIQELGQLTQAVQQCIEAAGHEHQPDMQKSLLRAASFGKCFLDRFPPDSFVHMCQDLRVLNAVRDYHIGIPLTYSQYKQLTIQVLLDRLVLRRLYPLAIQICEYLRLPEVQGVSRILAHWACYKVQQKDVSDEDVARAINQKLGDTPGVSYSDIAARAYGCGRTELAIKLLEYEPRSGEQVPLLLKMKRSKLALSKAIESGDTDLVFTVLLHLKNELNRGDFFMTLRNQPMALSLYRQFCKHQELETLKDLYNQDDNHQELGSFHIRASYAAEERIEGRVAALQTAADAFYKAKNEFAAKATEDQMRLLRLQRRLEDELGGQFLDLSLHDTVTTLILGGHNKRAEQLARDFRIPDKRLWWLKLTALADLEDWEELEKFSKSKKSPIGYLPFVEICMKQHNKYEAKKYASRVGPEQKVKALLLVGDVAQAADVAIEHRNEAELSLVLSHCTGATDGATADKIQRARAQAQKK
With B1 the binding was “no binding”.
